Reference: article PMC10441475, “Structure of METTL3-METTL14 with an m6A nucleotide reveals insights into m6A conversion and sensing”
Weaker means in comparison with the reference protein, sequence or condition of that experiment. For some assays here: The exact form of at least one protein or probe is not confirmed. For some assays here: At least one verdict was read from the data and is not stated in words by the source.

Tests used:
[1] = test system: METTL3 WT + METTL14 R298P; assay: 2-aminopurine fluorescence titration; settings: 10 mM MgCl2; 2-aminopurine at position 7 (written as A); recombinant protein; protein details: His-tag removed by TEV; label: 2-aminopurine
[2] = test system: METTL3 E481A + METTL14 WT; assay: fluorescence polarization; settings: FP: 10 mM HEPES pH 7.5, 50 mM KCl, 5 nM RNA, recombinant protein, protein details: His-tag removed by TEV, label: 5' fluorescein
[3] = test system: METTL3 H478A + METTL14 WT; assay: fluorescence polarization; settings: FP: 10 mM HEPES pH 7.5, 50 mM KCl, 5 nM RNA, recombinant protein, protein details: His-tag removed by TEV, label: 5' fluorescein
[4] = test system: METTL3 K459A + METTL14 WT; assay: fluorescence polarization; settings: FP: 10 mM HEPES pH 7.5, 50 mM KCl, 5 nM RNA, recombinant protein, protein details: His-tag removed by TEV, label: 5' fluorescein
[5] = test system: METTL3 R471H + METTL14 WT; assay: fluorescence polarization; settings: nanomolar, FP: 10 mM HEPES pH 7.5, 50 mM KCl, 5 nM RNA, recombinant protein, protein details: His-tag removed by TEV, label: 5' fluorescein
[6] = test system: METTL3 T433A + METTL14 WT; assay: fluorescence polarization; settings: FP: 10 mM HEPES pH 7.5, 50 mM KCl, 5 nM RNA, recombinant protein, protein details: His-tag removed by TEV, label: 5' fluorescein
[7] = test system: METTL3 WT + METTL14 R298P; assay: fluorescence polarization; settings: weakest mutant, nanomolar, FP: 10 mM HEPES pH 7.5, 50 mM KCl, 5 nM RNA, recombinant protein, protein details: His-tag removed by TEV, label: 5' fluorescein
[8] = test system: METTL3 del472-473 + METTL14 WT; assay: fluorescence polarization; settings: FP: 10 mM HEPES pH 7.5, 50 mM KCl, 5 nM RNA, recombinant protein, protein details: His-tag removed by TEV, label: 5' fluorescein
[9] = test system: METTL3 del472-474 + METTL14 WT; assay: fluorescence polarization; settings: FP: 10 mM HEPES pH 7.5, 50 mM KCl, 5 nM RNA, recombinant protein, protein details: His-tag removed by TEV, label: 5' fluorescein

Measured: binding result

CUUCGGACUCUGCU [r6T* (2-Ap)]
binds more weakly: [1]

GCCUAGUAGCAGAGAGGACUGCUCCUUGGU [Fl-NEAT2* (A-RNA)]
binds more weakly: [2] | [3] | [4] | [5] | [6] | [7] | [8] | [9]

GCCUAGUAGCAGAGAGGACUGCUCCUUGGU [Fl-NEAT2*-m6A (m6A-RNA)]
binds more weakly: [2]; m6A at position 18 | [3]; m6A at position 18 | [4]; m6A at position 18 | [5]; m6A at position 18 | [6]; m6A at position 18 | [7]; m6A at position 18 | [8]; m6A at position 18 | [9]; m6A at position 18
